These are yes or no findings as the source states them, for the method shown. In cells and extracts the contact can be indirect. Some entries that bind do so weakly or less than the wild type. Where a sequence is shown, tags or fusion partners need not be part of it.
Target: T1, GST-PLEKHA7 WW-PH (amino acids 1–284) (UniProt Q6IQ23)
T1 sequence: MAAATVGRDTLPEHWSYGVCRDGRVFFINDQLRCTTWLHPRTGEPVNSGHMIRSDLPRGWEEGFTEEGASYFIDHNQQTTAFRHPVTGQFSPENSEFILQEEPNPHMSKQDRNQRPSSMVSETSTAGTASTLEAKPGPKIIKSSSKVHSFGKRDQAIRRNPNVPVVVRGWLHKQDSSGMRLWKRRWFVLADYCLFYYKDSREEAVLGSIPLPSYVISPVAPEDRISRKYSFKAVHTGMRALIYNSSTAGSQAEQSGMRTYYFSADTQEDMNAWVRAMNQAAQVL
Test: pull-down; 5 ug GST-fusion bait coupled to glutathione magnetic agarose beads, overnight at 4 °C with normalized HEK293T lysates of preys, without or with increasing amounts of an HA-tagged additional (third) protein; lysis buffer NaCl 150 mM, Tris-HCl 20 mM pH 7.5, Nonidet P-40 1%, EDTA 1 mM; immunoblot with anti-GFP; only the target purified

B1: PDZD11-HA (protein, UniProt Q5EBL8 1-140)
chain: MDSRIPYDDYPVVFLPAYENPPAWIPPHERVHHPDYNNELTQFLPRTITLKKPPGAQLGFNIRGGKASQLGIFISKVIPDSDAHRAGLQEGDQVLAVNDVDFQDIEHSKAVEILKTAREISMRVRFFPYNYHRQKERTVH
For B1, the binding was “binds”.

Reference: publication PMC9307954
